In the supplement of paper PMC10849652:
The list shows a part of the results.

Amino acid sequences for entries named in this document (tags omitted). A change or cut given only in a name is not applied to a line headed by its entry.
UniProt O75563, whole entry, looked up: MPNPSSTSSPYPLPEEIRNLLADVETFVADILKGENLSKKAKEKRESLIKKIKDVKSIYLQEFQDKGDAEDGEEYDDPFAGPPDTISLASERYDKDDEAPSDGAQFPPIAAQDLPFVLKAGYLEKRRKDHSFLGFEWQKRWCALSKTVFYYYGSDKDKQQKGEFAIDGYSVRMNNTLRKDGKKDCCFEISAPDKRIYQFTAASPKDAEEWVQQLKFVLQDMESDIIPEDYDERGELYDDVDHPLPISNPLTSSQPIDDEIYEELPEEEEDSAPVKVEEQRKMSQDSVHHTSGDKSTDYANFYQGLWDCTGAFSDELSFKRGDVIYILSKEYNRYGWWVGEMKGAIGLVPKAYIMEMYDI
UniProt Q02383: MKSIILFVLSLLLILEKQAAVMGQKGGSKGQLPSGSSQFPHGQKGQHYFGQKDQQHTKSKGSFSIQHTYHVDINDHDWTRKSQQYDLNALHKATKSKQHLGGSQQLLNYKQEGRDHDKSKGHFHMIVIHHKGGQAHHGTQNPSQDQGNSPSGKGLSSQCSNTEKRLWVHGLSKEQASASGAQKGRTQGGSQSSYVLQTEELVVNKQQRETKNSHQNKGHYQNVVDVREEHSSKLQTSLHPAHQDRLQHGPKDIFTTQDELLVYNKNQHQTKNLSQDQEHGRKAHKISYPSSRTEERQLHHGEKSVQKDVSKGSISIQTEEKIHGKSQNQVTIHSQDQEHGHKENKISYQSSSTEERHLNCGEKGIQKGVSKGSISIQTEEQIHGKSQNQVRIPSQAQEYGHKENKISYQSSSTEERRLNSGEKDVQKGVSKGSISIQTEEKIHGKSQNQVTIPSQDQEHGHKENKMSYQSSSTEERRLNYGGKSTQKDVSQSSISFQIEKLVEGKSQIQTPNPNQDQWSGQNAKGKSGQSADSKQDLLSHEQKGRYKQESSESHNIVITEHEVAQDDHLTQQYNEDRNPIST
UniProt Q8WVK7: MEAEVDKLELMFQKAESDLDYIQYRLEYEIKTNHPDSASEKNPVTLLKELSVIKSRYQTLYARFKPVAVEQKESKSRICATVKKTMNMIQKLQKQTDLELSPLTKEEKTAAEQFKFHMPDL
UniProt Q2M3G4: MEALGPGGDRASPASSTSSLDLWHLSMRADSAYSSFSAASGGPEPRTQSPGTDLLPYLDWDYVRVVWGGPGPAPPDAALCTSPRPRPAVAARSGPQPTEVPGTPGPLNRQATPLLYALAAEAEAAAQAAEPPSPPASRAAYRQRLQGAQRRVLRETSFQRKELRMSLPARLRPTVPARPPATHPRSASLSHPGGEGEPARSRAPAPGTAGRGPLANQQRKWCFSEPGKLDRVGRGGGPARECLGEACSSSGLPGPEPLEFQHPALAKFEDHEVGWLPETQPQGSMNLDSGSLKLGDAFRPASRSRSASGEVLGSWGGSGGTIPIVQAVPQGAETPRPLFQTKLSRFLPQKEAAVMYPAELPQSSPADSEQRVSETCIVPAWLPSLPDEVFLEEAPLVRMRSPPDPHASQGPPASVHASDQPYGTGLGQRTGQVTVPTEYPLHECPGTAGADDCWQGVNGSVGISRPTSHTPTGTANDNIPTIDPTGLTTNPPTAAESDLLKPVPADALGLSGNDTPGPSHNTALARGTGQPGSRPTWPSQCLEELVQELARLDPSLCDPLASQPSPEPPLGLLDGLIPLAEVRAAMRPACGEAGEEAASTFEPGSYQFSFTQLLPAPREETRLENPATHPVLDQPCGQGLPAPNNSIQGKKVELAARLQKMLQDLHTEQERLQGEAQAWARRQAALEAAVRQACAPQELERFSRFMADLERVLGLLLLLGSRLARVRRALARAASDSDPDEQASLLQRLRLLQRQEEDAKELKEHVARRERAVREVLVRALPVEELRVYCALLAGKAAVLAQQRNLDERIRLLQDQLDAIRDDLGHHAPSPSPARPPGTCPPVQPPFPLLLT
UniProt P29353: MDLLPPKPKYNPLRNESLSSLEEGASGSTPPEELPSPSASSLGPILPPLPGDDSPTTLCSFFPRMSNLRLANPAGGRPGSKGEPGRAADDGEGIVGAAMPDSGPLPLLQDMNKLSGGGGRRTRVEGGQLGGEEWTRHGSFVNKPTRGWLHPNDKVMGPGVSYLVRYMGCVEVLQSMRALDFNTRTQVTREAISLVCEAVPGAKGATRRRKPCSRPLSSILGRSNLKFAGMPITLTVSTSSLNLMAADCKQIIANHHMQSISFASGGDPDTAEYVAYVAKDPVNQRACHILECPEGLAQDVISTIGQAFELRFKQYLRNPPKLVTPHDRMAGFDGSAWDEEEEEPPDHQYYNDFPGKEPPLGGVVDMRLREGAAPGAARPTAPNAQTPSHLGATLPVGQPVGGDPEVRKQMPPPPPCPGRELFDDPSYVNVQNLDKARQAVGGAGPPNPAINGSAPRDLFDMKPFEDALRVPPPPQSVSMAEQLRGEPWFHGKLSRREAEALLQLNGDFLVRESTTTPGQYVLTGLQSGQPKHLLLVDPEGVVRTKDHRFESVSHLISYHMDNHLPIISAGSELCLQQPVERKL
UniProt Q9NZV5, whole entry, looked up: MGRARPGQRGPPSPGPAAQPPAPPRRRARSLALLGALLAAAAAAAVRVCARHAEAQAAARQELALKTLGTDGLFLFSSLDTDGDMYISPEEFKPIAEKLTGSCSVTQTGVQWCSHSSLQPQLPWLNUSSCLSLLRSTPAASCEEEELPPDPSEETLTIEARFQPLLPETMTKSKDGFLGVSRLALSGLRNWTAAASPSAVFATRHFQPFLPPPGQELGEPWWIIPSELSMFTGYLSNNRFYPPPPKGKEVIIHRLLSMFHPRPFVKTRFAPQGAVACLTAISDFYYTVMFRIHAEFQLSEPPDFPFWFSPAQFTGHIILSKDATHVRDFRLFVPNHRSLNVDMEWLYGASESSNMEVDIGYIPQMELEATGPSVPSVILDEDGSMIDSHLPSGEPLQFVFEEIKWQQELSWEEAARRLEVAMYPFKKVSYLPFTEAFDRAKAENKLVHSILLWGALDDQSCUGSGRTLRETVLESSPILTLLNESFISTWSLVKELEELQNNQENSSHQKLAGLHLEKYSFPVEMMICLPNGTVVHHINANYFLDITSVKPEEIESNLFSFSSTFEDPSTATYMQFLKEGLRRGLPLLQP
UniProt O75326: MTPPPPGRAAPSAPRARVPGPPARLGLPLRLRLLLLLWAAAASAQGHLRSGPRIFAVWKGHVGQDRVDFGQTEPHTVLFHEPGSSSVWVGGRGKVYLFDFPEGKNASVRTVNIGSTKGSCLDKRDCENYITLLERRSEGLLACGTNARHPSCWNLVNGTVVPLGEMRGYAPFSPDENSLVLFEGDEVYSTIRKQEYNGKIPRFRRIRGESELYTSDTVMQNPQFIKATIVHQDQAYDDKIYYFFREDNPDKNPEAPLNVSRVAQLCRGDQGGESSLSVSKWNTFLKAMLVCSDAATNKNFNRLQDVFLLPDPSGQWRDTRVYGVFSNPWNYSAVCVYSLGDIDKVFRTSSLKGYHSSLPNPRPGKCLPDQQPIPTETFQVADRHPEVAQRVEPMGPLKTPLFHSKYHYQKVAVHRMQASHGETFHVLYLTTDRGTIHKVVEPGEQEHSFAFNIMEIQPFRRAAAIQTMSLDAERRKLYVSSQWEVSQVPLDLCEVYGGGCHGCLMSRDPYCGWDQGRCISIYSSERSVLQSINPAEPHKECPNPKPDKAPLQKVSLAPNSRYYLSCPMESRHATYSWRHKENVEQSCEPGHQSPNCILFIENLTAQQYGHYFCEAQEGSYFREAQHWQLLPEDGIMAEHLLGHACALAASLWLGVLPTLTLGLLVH
UniProt Q9BYW2: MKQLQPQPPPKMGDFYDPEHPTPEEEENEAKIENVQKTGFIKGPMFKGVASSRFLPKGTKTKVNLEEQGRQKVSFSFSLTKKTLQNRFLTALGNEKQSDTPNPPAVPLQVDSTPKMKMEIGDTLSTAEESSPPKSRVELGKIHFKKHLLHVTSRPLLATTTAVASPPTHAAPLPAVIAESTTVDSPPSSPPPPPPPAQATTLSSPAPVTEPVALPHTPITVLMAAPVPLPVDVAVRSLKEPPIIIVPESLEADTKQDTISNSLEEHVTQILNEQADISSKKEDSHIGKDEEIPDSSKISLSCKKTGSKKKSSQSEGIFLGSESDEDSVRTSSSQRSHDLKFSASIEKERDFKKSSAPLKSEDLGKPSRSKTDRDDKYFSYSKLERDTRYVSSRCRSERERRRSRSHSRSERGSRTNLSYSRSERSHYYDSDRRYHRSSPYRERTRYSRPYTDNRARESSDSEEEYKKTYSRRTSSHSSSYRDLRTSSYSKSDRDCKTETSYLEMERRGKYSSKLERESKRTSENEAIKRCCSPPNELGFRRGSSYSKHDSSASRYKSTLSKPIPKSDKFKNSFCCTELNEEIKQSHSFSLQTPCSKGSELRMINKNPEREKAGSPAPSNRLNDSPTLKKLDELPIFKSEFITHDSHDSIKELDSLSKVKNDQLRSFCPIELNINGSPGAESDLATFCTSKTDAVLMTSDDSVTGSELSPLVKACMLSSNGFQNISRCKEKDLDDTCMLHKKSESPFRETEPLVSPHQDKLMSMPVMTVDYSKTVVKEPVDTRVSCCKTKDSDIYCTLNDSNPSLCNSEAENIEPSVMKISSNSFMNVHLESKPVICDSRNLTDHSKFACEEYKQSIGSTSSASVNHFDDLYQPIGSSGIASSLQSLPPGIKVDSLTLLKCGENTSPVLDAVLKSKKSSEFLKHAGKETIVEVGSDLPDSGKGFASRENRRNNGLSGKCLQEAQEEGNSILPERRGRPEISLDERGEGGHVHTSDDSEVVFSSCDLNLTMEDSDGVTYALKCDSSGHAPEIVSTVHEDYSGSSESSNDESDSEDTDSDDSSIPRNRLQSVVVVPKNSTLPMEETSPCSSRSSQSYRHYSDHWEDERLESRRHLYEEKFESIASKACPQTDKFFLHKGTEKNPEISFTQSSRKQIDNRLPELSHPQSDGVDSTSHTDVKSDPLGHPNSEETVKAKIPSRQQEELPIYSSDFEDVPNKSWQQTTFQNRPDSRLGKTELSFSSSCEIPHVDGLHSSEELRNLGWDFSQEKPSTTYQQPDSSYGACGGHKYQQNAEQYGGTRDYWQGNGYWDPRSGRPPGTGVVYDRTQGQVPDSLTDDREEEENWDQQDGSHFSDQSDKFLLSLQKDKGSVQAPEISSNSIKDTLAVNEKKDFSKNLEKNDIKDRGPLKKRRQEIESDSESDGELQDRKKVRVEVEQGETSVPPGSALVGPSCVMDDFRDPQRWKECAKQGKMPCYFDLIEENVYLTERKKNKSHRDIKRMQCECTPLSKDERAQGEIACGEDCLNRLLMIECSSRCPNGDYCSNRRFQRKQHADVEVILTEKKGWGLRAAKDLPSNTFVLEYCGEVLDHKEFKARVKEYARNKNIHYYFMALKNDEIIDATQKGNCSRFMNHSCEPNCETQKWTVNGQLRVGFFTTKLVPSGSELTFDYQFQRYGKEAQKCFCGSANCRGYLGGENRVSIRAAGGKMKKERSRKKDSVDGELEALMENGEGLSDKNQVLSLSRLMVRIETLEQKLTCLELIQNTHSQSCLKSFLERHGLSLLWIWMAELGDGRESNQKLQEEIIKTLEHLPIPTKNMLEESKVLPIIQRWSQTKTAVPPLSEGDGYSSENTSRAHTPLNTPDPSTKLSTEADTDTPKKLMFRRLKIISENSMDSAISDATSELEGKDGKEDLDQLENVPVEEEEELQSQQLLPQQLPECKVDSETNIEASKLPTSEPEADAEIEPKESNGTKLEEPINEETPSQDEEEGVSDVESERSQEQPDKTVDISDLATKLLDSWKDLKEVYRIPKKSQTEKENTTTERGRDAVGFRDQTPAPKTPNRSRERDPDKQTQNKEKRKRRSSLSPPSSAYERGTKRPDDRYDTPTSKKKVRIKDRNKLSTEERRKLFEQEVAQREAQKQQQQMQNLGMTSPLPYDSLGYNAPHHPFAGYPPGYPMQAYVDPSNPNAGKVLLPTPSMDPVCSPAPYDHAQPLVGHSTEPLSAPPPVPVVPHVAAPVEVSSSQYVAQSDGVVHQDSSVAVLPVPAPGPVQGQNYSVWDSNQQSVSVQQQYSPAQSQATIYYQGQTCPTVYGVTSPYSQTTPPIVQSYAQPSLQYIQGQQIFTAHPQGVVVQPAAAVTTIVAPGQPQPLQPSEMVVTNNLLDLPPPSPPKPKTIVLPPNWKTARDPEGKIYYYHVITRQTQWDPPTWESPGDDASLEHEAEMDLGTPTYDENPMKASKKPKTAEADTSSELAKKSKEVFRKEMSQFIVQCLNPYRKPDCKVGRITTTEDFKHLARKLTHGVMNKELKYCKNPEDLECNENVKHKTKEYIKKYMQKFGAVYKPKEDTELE
UniProt Q86XK3: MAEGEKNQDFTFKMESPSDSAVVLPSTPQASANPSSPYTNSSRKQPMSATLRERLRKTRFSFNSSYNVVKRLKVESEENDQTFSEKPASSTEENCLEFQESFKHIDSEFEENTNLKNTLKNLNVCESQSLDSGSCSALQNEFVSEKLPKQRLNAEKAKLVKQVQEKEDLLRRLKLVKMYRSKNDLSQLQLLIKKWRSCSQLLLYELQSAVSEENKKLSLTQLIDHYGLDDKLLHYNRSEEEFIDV

Experiments:
Test in all cases: log2 fold change, soluble protein after heating vs DMSO (PISA); higher = thermal stabilisation; K562 cells, 10 uM, 30 min; active = over 0.2 and 3.5 SD of the protein, either way, in both replicates (recomputed)
filanesib = compound: CON(C)C(=O)N1N=C(c2cc(F)ccc2F)S[C@@]1(CCCN)c1ccccc1 [filanesib]
Procedure, shortened: (§1)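 Soluble protein was defined as the supernatant after 21,000xg for 90 min. It came from K562 cells at 2×10^6 cells/mL given 10 μM compound for 30 min, heated in aliquots for 3 min across 48°C-58°C, pooled, and extracted in PBS with 0.5% NP-40 at 4°C, and was quantified by TMTpro 16plex LC-MS/MS with equalised channel sums. Thermal stability against control samples, from duplicates, is reported as log2 fold change.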

zotarolimus = compound: CO[C@H]1C[C@@H]2CC[C@@H](C)[C@@](O)(O2)C(=O)C(=O)N2CCCC[C@H]2C(=O)O[C@H]([C@H](C)C[C@@H]2CC[C@H](n3cnnn3)[C@H](OC)C2)CC(=O)[C@H](C)/C=C(\C)[C@@H](O)[C@@H](OC)C(=O)[C@H](C)C[C@H](C)/C=C/C=C/C=C/1C [zotarolimus]
Procedure, shortened: as §1

idasanutlin = compound: COc1cc(C(=O)O)ccc1NC(=O)[C@@H]1N[C@@H](CC(C)(C)C)[C@](C#N)(c2ccc(Cl)cc2F)[C@H]1c1cccc(Cl)c1F [idasanutlin]
Procedure, shortened: as §1

alisertib = compound: COc1cc(Nc2ncc3c(n2)-c2ccc(Cl)cc2C(c2c(F)cccc2OC)=NC3)ccc1C(=O)O [alisertib]
Procedure, shortened: as §1

gefitinib = compound: COc1cc2ncnc(Nc3ccc(F)c(Cl)c3)c2cc1OCCCN1CCOCC1 [gefitinib]
Procedure, shortened: as §1

[1] = compound: COc1cccc2cc(-c3nc([C@H]4CC[C@H](C(=O)O)CC4)n4ncnc(N)c34)[nH]c12
Procedure, shortened: as §1

pictilisib = compound: CS(=O)(=O)N1CCN(Cc2cc3nc(-c4cccc5[nH]ncc45)nc(N4CCOCC4)c3s2)CC1 [pictilisib]
Procedure, shortened: as §1

[2] = compound: CS(=O)(=O)c1ccc(-c2cnc(N)c(C(=O)Nc3ccccc3)n2)cc1
Procedure, shortened: as §1

[3] = compound: C[C@@H]1COCCN1C2=NC(=NC(=C2)C3(CC3)S(=O)(=O)C)C4=C5C=CNC5=CC=C4
Procedure, shortened: as §1

[4] = compound: C[C@H](C1=CC=C(C=C1)C(=O)NC2=C3C=CNC3=NC=C2)N
Procedure, shortened: as §1

gandotinib = compound: Cc1cc(Nc2cc(CN3CCOCC3)c3nc(C)c(Cc4ccc(Cl)cc4F)n3n2)n[nH]1 [gandotinib]
Procedure, shortened: as §1

[5] = compound: COC1=CC=C(C=C1)CN2C=CC3=C2C=C(C=C3)C(=O)NO
Procedure, shortened: as §1

crizotinib = compound: C[C@@H](Oc1cc(-c2cnn(C3CCNCC3)c2)cnc1N)c1c(Cl)ccc(F)c1Cl [crizotinib]
Procedure, shortened: as §1

doramapimod = compound: Cc1ccc(-n2nc(C(C)(C)C)cc2NC(=O)Nc2ccc(OCCN3CCOCC3)c3ccccc23)cc1 [doramapimod]
Procedure, shortened: as §1

[6] = compound: COc1cc2nc(-c3cc(F)ccc3O)nc(N[C@@H]3CNC[C@H]3C(C)(C)O)c2cc1OC
Procedure, shortened: as §1

lapatinib = compound: CS(=O)(=O)CCNCc1ccc(-c2ccc3ncnc(Nc4ccc(OCc5cccc(F)c5)c(Cl)c4)c3c2)o1 [lapatinib]
Procedure, shortened: as §1

duvelisib = compound: C[C@H](Nc1ncnc2nc[nH]c12)c1cc2cccc(Cl)c2c(=O)n1-c1ccccc1 [duvelisib]
Procedure, shortened: as §1

tozasertib = compound: Cc1cc(Nc2cc(N3CCN(C)CC3)nc(Sc3ccc(NC(=O)C4CC4)cc3)n2)n[nH]1 [tozasertib]
Procedure, shortened: as §1

[7] = compound: Cc1cc(SCc2sc(-c3ccc(C(F)(F)F)cc3)nc2C)ccc1OCC(=O)O
Procedure, shortened: as §1

ispinesib = compound: Cc1ccc(C(=O)N(CCCN)[C@@H](c2nc3cc(Cl)ccc3c(=O)n2Cc2ccccc2)C(C)C)cc1 [ispinesib]
Procedure, shortened: as §1

Measured: log2 fold change

SH3PXD2B (UniProt A1X283)
inactive: filanesib -0.06 | zotarolimus -0.003 | idasanutlin -0.174 | alisertib -0.02 | gefitinib 0.149 | [1] -0.037 | pictilisib 0.162 | [2] 0.002 | [3] 0.246 | [4] 0.055 | gandotinib 0.077

SERPINB6, A0A2R8Y7E5
inactive: [5] 0.101 | alisertib 1.55 | [1] 0.005 | crizotinib -0.167 | [3] -0.158 | doramapimod -0.045

SKAP2 (UniProt O75563)
inactive: [5] -0.11 | idasanutlin -0.087 | alisertib 0.026 | [6] 0.266 | [1] -0.017 | lapatinib -0.114 | crizotinib -0.155 | duvelisib 0.065 | tozasertib -0.109 | [7] 0.168 | doramapimod 0.075 | ispinesib -0.226

SENP8 (UniProt Q96LD8)
inactive: [5] 0.046 | gefitinib 0.032 | crizotinib 0.003 | doramapimod -0.193

SIAH2 (UniProt O43255)
inactive: [5] -0.018 | zotarolimus -0.081 | idasanutlin -0.062 | alisertib -0.027 | [6] -0.034 | gefitinib 0.028 | [1] 0.025 | lapatinib -0.031 | crizotinib 0.145 | [4] 0.22 | doramapimod 0.056 | ispinesib -0.022

SIRT3 (UniProt Q9NTG7)
inactive: [5] -0.063 | idasanutlin 0.416 | alisertib -0.079 | [1] 0.075 | pictilisib 0.126 | crizotinib -0.081 | duvelisib 0.123 | gandotinib -0.133 | [7] -0.057 | doramapimod 0.025 | ispinesib 0.223

SH2D3A (UniProt Q9BRG2)
inactive: [5] 0.193 | gefitinib -0.039 | crizotinib -0.169 | doramapimod 0.035 | ispinesib 0.129

SEC61G (UniProt P60059)
inactive: [5] -0.076 | filanesib 0.059 | alisertib 0.09 | gefitinib -0.093 | [1] 0.052 | [2] 0.091 | crizotinib 0.175 | [3] 0.094 | duvelisib 0.021 | [7] 0.094 | doramapimod -0.102 | ispinesib -0.02

SELENOK (UniProt Q9Y6D0)
inactive: filanesib -0.257 | zotarolimus 0.04 | idasanutlin 0.166 | alisertib 0.2 | gefitinib -0.214 | [1] 0.086 | pictilisib 0.011 | [2] -0.037 | [3] 0.087 | [4] 0.079 | gandotinib -0.441 | tozasertib 0.09

SIAE (UniProt Q9HAT2)
inactive: [5] -0.233 | filanesib -0.222 | zotarolimus -0.063 | idasanutlin 0.029 | [6] 0.138 | gefitinib 0.032 | lapatinib -0.208 | pictilisib 0.16 | [2] 0.084 | crizotinib -0.017 | [3] -0.035 | [4] 0.103 | duvelisib 0.265 | gandotinib -0.221 | tozasertib -0.108 | [7] -0.094 | doramapimod 0.079 | ispinesib -0.254

SEMG2 (UniProt Q02383)
inactive: filanesib -0.002 | zotarolimus -0.021 | idasanutlin -0.135 | alisertib 0.005 | gefitinib -0.008 | [1] 0.063 | pictilisib -0.021 | [2] -0.058 | [3] 0.096 | [4] -0.021 | gandotinib -0.032

SEPTIN7 isoform 2 (UniProt Q16181)
inactive: idasanutlin -0.116 | alisertib 1.39 | [1] -0.297 | tozasertib -0.019

SHROOM4 (UniProt Q9ULL8)
inactive: zotarolimus -0.098 | idasanutlin 0.181 | alisertib 0.113 | [6] 0.164 | [1] -0.086 | lapatinib 0.062 | pictilisib -0.078 | [4] 0.254 | duvelisib -0.075 | gandotinib 0.266 | [7] -0.279

SECISBP2 (UniProt Q96T21)
inactive: alisertib 0.07 | gefitinib 0.17 | [1] -0.052 | pictilisib 0.233 | gandotinib 0.101 | tozasertib -0.233 | ispinesib -0.255

SIVA1 (UniProt O15304)
inactive: [3] -0.092

SFT2D1 (UniProt Q8WV19)
inactive: filanesib -0.072 | idasanutlin -0.085 | alisertib 0.047 | [6] 0.048 | [1] 0.041 | lapatinib -0.024 | [2] -0.006 | ispinesib -0.205

SKA2 (UniProt Q8WVK7)
inactive: pictilisib -0.063 | gandotinib -0.046 | ispinesib -0.571

SHROOM1 (UniProt Q2M3G4)
inactive: zotarolimus 0.072 | idasanutlin 0.088 | [6] 0.249 | lapatinib -0.151 | [3] -0.055 | [4] -0.064 | ispinesib 0.147

SHC1 (UniProt P29353)
inactive: idasanutlin -0.131

SERBP1 isoform 3 (UniProt Q8NC51)
inactive: idasanutlin 0.073 | alisertib -0.153 | [6] -0.081 | gefitinib 0.101 | [1] -0.038 | lapatinib 0.13 | pictilisib -0.201 | [3] -0.239 | duvelisib -0.201 | gandotinib 0.146 | tozasertib -0.027 | [7] -0.064 | ispinesib -0.367

SGSH (UniProt P51688)
inactive: zotarolimus 0.026 | gefitinib -0.493 | [4] 0.127

SELENOM (UniProt Q8WWX9)
inactive: gefitinib 0.037 | [3] 0.104

SHARPIN (UniProt Q9H0F6)
inactive: gefitinib -0.074

SELENON (UniProt Q9NZV5)
inactive: filanesib 0.045 | idasanutlin 0.056 | [2] 0.125 | ispinesib -0.057

SERPING1 isoform 3 (UniProt P05155)
inactive: zotarolimus -0.235 | [4] 0.044 | duvelisib -0.082 | tozasertib -0.039 | [7] -0.113

SERPINA12 (UniProt Q8IW75)
inactive: filanesib 0.092 | alisertib 1.2 | gefitinib 0.236 | [1] 0.08 | [2] -0.189 | [3] 0.001 | duvelisib -0.19 | tozasertib 0.273 | [7] -0.308

SEMA7A (UniProt O75326)
inactive: pictilisib 0.232 | [3] 0.22 | gandotinib 0.035 | ispinesib 0.017

SIK2 (UniProt Q9H0K1)
inactive: alisertib -0.048 | [6] 0.126 | [1] 0 | lapatinib 0.094 | ispinesib -0.069

SFXN1 (UniProt D6RDG7)
inactive: alisertib 1.54 | [1] -0.086 | tozasertib -0.119

SERPINB7 (UniProt O75635)
inactive: idasanutlin -0.016 | alisertib -0.005 | [1] 0.141 | pictilisib -0.226 | duvelisib -0.057 | gandotinib -0.135 | tozasertib -0.189 | [7] -0.202

SF1 (UniProt H7BZT1)
inactive: ispinesib -0.188

SERAC1 (UniProt Q96JX3)
inactive: zotarolimus -0.053 | alisertib 0.275 | gefitinib 0.06 | [1] 0.208 | [4] 0.079

SEMG1 (UniProt P04279)
inactive: zotarolimus -0.021 | alisertib 0.551 | [1] -0.37 | [4] -0.107

SHFL (UniProt Q9NUL5)
inactive: filanesib 0.154 | idasanutlin 0.229 | alisertib -0.103 | [6] -0.079 | gefitinib -0.031 | [1] -0.019 | lapatinib 0.03 | pictilisib -0.077 | [2] -0.037 | [3] -0.093 | gandotinib 0.032 | tozasertib 0.158 | ispinesib -0.009

SEPTIN2 (UniProt B5MCX3)
inactive: idasanutlin -0.107 | tozasertib -0.131 | ispinesib -0.278

Looked up one by one from above, 2 records:
SIK2 (UniProt Q9H0K1)
inactive: alisertib -0.048 | [6] 0.126 | [1] 0 | lapatinib 0.094 | ispinesib -0.069

SEPTIN7 isoform 2 (UniProt Q16181)
inactive: idasanutlin -0.116 | alisertib 1.39 | [1] -0.297 | tozasertib -0.019

Going on with the list:

SHQ1 (UniProt Q6PI26)
inactive: duvelisib 0.126 | [7] 0.076

SETD2 (UniProt Q9BYW2)
inactive: idasanutlin 0.077 | pictilisib 0.132 | gandotinib -0.035 | tozasertib -0.172

SERPINA3 (UniProt P01011)
inactive: [3] -0.098

SFR1 isoform 2 (UniProt Q86XK3)
inactive: filanesib -0.023 | zotarolimus -0.052 | alisertib 0.026 | [1] 0.041 | [2] -0.107 | [3] -0.154 | [4] 0.068 | ispinesib 0.028

SFXN4 isoform 3 (UniProt Q6P4A7)
inactive: filanesib -0.216 | zotarolimus 0.075 | idasanutlin -0.303 | [6] -0.126 | lapatinib 0.195 | pictilisib 0.004 | [2] 0.189 | [4] -0.22 | duvelisib 0.029 | gandotinib -0.173 | tozasertib -0.06 | [7] 0.002

SH3BGR (UniProt P55822)
inactive: zotarolimus 0.176 | idasanutlin 0.274 | alisertib 0.011 | [6] 0.028 | gefitinib 0.06 | [1] 0.036 | lapatinib 0.017 | pictilisib -0.18 | [3] 0.043 | [4] -0.04 | duvelisib 0.012 | gandotinib -0.206 | [7] 0.115

SH3GL3 isoform 3 (UniProt Q99963)
inactive: filanesib -0.023 | alisertib 0.083 | [6] 0.355 | [1] 0.036 | lapatinib -0.061 | [2] 0.098 | tozasertib -0.208 | ispinesib -0.259

SERF2 (UniProt P84101)
inactive: filanesib 0.038 | zotarolimus 0.035 | alisertib -0.031 | gefitinib 0.012 | [1] 0.016 | pictilisib 0.128 | [2] 0.003 | [3] -0.134 | [4] -0.011 | duvelisib 0.179 | gandotinib -0.158 | tozasertib -0.054 | [7] -0.091 | ispinesib 0.011

SERPINB5 (UniProt P36952)
inactive: filanesib -0.393 | alisertib 2.07 | [1] 0.026 | [2] 0.079 | duvelisib 0.075 | tozasertib 0.038 | [7] 0.211 | ispinesib 0.007
